Test results from PubChem BioAssay (NCATS).
This list was built around the results that the source calls inconclusive (neither active nor inactive); the mix of calls is not that of the screen. Where the call is inconclusive, the potency comes from a doubtful curve fit. Calls of active or inactive are those of the source. Calls follow the shape of the dose curve; as a rule, active = well fitted cell-killing curve with a large enough effect; inconclusive = small, poorly fitted or top-dose-only effect, or effect the other way; inactive = no such curve, though single readings can be large or run the other way.

Legend:
[1] = Quantitative High-Throughput drug screen in 47 multiple myeloma cell lines against the NCATS MIPE library collection: FR4_PLB cell viability assay (AID 1918924; also: nearly all actives have a fitted effect of over 35% in size); details: FR4_PLB myeloma cells viability, CellTiter-Glo ATP, 48 h; series mostly up to 45.8 µM
How it was run: (§1)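 Luminescent ATP measurement with CellTiter-Glo gives viability, scaled between DMSO-only wells (100%) and media-only wells (0%). Cells, 500 per well, faced library compounds for 48 hours at 37C.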

[2] = Quantitative High-Throughput drug screen in 47 multiple myeloma cell lines against the NCATS MIPE library collection: Delta47_JCRB cell viability assay (AID 1918925; also: nearly all actives have a fitted effect of over 45% in size); details: Delta47 myeloma viability, CellTiter-Glo ATP, 48 h; viability (% of DMSO): at 45.8 µM (top of the series) unless noted
How it was run: as §1

[3] = Quantitative High-Throughput drug screen in 47 multiple myeloma cell lines against the NCATS MIPE library collection: EJM_DSMZ cell viability assay (AID 1918926; also: nearly all actives have a fitted effect of over 30% in size); details: EJM myeloma cell viability, CellTiter-Glo ATP, 48 h; series mostly up to 45.8 µM
How it was run: as §1

[4] = Quantitative High-Throughput drug screen in 47 multiple myeloma cell lines against the NCATS MIPE library collection: AMO1_DSMZ cell viability assay (AID 1918927; also: nearly all actives have a fitted effect of over 30% in size)
How it was run: as §1

[5] = Quantitative High-Throughput drug screen in 47 multiple myeloma cell lines against the NCATS MIPE library collection: ARD_JJKsccE7 cell viability assay (AID 1918929)
How it was run: as §1

[6] = Quantitative High-Throughput drug screen in 47 multiple myeloma cell lines against the NCATS MIPE library collection: Karpas620_DSMZ cell viability assay (AID 1918959); also: nearly all actives have a fitted effect of over 30% in size
How it was run: as §1

[7] = Quantitative High-Throughput drug screen in 47 multiple myeloma cell lines against the NCATS MIPE library collection: KMM1_JCRB cell viability assay (AID 1918960); details: KMM1 myeloma viability, CellTiter-Glo ATP luminescence, 48 h; viability (% of DMSO): at 45.8 µM (top of the series); also: nearly all actives have a fitted effect of over 30% in size
How it was run: (§2)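 Myeloma cells, 500 per well, were exposed to MIPE 4.0 drugs by pin transfer for 48 h at 37 °C, 5% CO2. Viability was read as ATP luminescence with CellTiter-Glo, normalised to DMSO-only (100%) and medium-only (0%) wells.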

[8] = Quantitative High-Throughput drug screen in 47 multiple myeloma cell lines against the NCATS MIPE library collection: Karpas417_ECACC cell viability assay (AID 1918961); details: Karpas417 myeloma viability, CellTiter-Glo ATP luminescence, 48 h; viability (% of DMSO): at 45.8 µM (top of the series) unless noted
How it was run: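 Steps: seed 500 cells per well; pin-transfer MIPE 4.0 library; incubate 48 h at 37C, 5% CO2, humidified; add CellTiter-Glo, 5 min room temperature; read luminescence.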

[9] = Quantitative High-Throughput drug screen in 47 multiple myeloma cell lines against the NCATS MIPE library collection: KHM11_PLB cell viability assay (AID 1918962); details: KHM11 myeloma cell viability, CellTiter-Glo ATP luminescence, 48 h; series mostly up to 45.8 µM; also: nearly all actives have a fitted effect of over 35% in size
How it was run: as §1

[10] = Quantitative High-Throughput drug screen in 47 multiple myeloma cell lines against the NCATS MIPE library collection: ARP1_JJKsccF8 cell viability assay (AID 1918928; also: nearly all actives have a fitted effect of over 40% in size); details: ARP1 myeloma cells viability, CellTiter-Glo ATP, 48 h; viability: at 45.8 µM (top of the series)
How it was run: as §2
Potency is read from the fitted curve at half-maximal effect.

Cc1ccc(/C=N/NC(=O)c2ccccc2Oc2ccccc2)o1
Potency [1]: inconclusive: 18.7 µM [cytotoxic, partial curve] | Potency [2]: inconclusive: 14.8 µM [cytotoxic, partial curve] | Potency [3]: inconclusive: 11.8 µM [cytotoxic, partial curve, poor fit] | Potency [4]: inconclusive: 11.8 µM [cytotoxic, single point] | Potency [5]: inconclusive: 13.2 µM [cytotoxic, single point] | Potency [6]: inconclusive: 7.43 µM [cytotoxic, single point] | Potency [7]: inconclusive: 10.5 µM [cytotoxic, single point] | Potency [8]: inconclusive: 0.003 µM [rising, full curve, poor fit]

CN1C(=O)C[C@H](C(=O)N[C@@H](Cc2cnc[nH]2)C(=O)N2CCC[C@@H]2C(N)=O)NC1=O
Potency [1]: inactive | Potency [2]: inconclusive: 8.33 µM [cytotoxic, partial curve] | Potency [3]: inactive | Potency [4]: inconclusive: 16.6 µM [cytotoxic, partial curve, poor fit] | Potency [5]: inactive | Potency [7]: inconclusive: 0.132 µM [cytotoxic, full curve, poor fit] | Potency [8]: inconclusive: 0.0059 µM [cytotoxic, full curve, poor fit] | Potency [9]: inactive

Cc1ccc(C(=O)c2cc(O)c(O)c([N+](=O)[O-])c2)cc1
Potency [1]: inconclusive: 26.4 µM [cytotoxic, partial curve, poor fit] | Potency [2]: active: 26.4 µM | Potency [3]: inconclusive: 37.2 µM [cytotoxic, single point] | Potency [4]: inconclusive: 26.4 µM [cytotoxic, single point] | Potency [10]: inactive | Potency [6]: inconclusive: 29.6 µM [cytotoxic, single point] | Potency [8]: inconclusive: 20.9 µM [cytotoxic, partial curve, poor fit] | Potency [9]: inconclusive: 37.2 µM [cytotoxic, single point]

Clc1ccc(COC(Cn2ccnc2)c2ccc(Cl)cc2Cl)cc1 (stereo not given)
Potency [1]: inconclusive: 37.2 µM [cytotoxic, single point] | Potency [2]: inconclusive: 23.5 µM [cytotoxic, partial curve] | Potency [3]: inconclusive: 37.2 µM [cytotoxic, single point] | Potency [10]: inconclusive: 29.6 µM [cytotoxic, partial curve, poor fit] | Potency [6]: inconclusive: 33.2 µM [cytotoxic, single point] | Potency [7]: active: 20.9 µM | Potency [8]: inconclusive: 20.9 µM [cytotoxic, partial curve, poor fit]

O=c1cc(O)c(Cl)c[nH]1
Potency [1]: inactive | Potency [2]: inactive | Potency [3]: inconclusive: 4.69 µM [cytotoxic, partial curve, poor fit] | Potency [4]: active: 2.64 µM | Potency [10]: inactive | Potency [7]: inconclusive: 2.96 µM [cytotoxic, full curve, poor fit] | Potency [8]: active: 1.18 µM | Potency [9]: inactive

CN(C)Cc1cccc(N=C(c2ccccc2)c2c(O)[nH]c3cc(C(=O)N(C)C)ccc23)c1
Potency [1]: inconclusive: 29.6 µM [cytotoxic, partial curve, poor fit] | Potency [2]: inconclusive: 16.6 µM [cytotoxic, partial curve, poor fit] | Potency [3]: inconclusive: 2.64 µM [cytotoxic, full curve] | Potency [4]: inconclusive: 14.8 µM [cytotoxic, partial curve, poor fit] | Potency [5]: inconclusive: 11.8 µM [cytotoxic, partial curve] | Potency [7]: inconclusive: 11.8 µM [cytotoxic, partial curve] | Potency [8]: inconclusive: 1.05 µM [cytotoxic, full curve, poor fit]

CC=CCC=CCCC(=O)[C@H]1O[C@@H]1C(N)=O
Potency [1]: inconclusive: 26.4 µM [cytotoxic, single point] | Potency [2]: inconclusive: 33.2 µM [cytotoxic, partial curve, poor fit] | Potency [3]: inconclusive: 20.9 µM [cytotoxic, partial curve] | Potency [10]: inconclusive: 29.6 µM [cytotoxic, single point] | Potency [7]: inconclusive: 33.2 µM [cytotoxic, single point] | Potency [8]: inconclusive: 23.5 µM [cytotoxic, partial curve, poor fit] | Potency [9]: inconclusive: 0.264 µM [rising, full curve, poor fit]

Cc1cccc(C)c1OCC(=O)N[C@@H](Cc1ccccc1)[C@@H](O)C[C@H](Cc1ccccc1)NC(=O)[C@H](C(C)C)N1CCCNC1=O
Potency [1]: inconclusive: 20.9 µM [cytotoxic, partial curve] | Potency [2]: inconclusive: 29.6 µM [cytotoxic, single point] | Potency [3]: inconclusive: 20.9 µM [cytotoxic, partial curve] | Potency [10]: inconclusive: 37.2 µM [cytotoxic, single point] | Potency [6]: inconclusive: 9.35 µM [cytotoxic, single point] | Potency [8]: inconclusive: 6.62 µM [cytotoxic, partial curve, poor fit] | Potency [9]: inactive
